Measurements as given in patent US20230295331A1.
No constants are given. Whether binding was seen depends on the method and setting.

What was measured:
Assay in all cases: condition: dilution 10^2 (least diluted; no concentration given); ELISA, dilution series of antibody 7A8D5 on control protein
ACAA1 = target: ACAA1
CD274 = target: CD274
TOX = target: TOX
GPR63 = target: GPR63
ATP6AP1 = target: ATP6AP1
CD45R = target: CD45R
ADRB2 = target: ADRB2

Measured: binding

B1: mouse monoclonal anti-human CS1 antibody, clone 7A8D5 (antibody, V domains shown)
VH: VQLQQSGPEVVRPGVSVKISCKGSGYTFTDYAIHWVKQSHAKSLEWIGVINTYNGNTNYNQKFKGKATMTVDKSSSTAYMELARLTSEDSAIYYCTRTGYYYGPSHYFDYWGQGTTLTVSS
VL: DIVLTQSPASLTVSLGQRATMSCRASKSVSTSGYSYVHWYQQKPGQPPKLLIYLASNLESGVPARFSASGSGTDFTLNIHPVEEEDAATYYCQHSRELPWTFGGGTKLEIKR
no binding: all assays above
